Measurements taken from the supplement of paper PMC11006884.
The targets with a hit were mostly taken out for another list; the other results follow. The data scatter; read single values as rough. The entries are a selection whose mix differs from that of the whole data set.

By UniProt entry, the sequences of proteins in these tests, tags left out. Where a name states a change or a piece, a line headed by the entry shows the natural chain unless it says otherwise.
UniProt Q9P2E9: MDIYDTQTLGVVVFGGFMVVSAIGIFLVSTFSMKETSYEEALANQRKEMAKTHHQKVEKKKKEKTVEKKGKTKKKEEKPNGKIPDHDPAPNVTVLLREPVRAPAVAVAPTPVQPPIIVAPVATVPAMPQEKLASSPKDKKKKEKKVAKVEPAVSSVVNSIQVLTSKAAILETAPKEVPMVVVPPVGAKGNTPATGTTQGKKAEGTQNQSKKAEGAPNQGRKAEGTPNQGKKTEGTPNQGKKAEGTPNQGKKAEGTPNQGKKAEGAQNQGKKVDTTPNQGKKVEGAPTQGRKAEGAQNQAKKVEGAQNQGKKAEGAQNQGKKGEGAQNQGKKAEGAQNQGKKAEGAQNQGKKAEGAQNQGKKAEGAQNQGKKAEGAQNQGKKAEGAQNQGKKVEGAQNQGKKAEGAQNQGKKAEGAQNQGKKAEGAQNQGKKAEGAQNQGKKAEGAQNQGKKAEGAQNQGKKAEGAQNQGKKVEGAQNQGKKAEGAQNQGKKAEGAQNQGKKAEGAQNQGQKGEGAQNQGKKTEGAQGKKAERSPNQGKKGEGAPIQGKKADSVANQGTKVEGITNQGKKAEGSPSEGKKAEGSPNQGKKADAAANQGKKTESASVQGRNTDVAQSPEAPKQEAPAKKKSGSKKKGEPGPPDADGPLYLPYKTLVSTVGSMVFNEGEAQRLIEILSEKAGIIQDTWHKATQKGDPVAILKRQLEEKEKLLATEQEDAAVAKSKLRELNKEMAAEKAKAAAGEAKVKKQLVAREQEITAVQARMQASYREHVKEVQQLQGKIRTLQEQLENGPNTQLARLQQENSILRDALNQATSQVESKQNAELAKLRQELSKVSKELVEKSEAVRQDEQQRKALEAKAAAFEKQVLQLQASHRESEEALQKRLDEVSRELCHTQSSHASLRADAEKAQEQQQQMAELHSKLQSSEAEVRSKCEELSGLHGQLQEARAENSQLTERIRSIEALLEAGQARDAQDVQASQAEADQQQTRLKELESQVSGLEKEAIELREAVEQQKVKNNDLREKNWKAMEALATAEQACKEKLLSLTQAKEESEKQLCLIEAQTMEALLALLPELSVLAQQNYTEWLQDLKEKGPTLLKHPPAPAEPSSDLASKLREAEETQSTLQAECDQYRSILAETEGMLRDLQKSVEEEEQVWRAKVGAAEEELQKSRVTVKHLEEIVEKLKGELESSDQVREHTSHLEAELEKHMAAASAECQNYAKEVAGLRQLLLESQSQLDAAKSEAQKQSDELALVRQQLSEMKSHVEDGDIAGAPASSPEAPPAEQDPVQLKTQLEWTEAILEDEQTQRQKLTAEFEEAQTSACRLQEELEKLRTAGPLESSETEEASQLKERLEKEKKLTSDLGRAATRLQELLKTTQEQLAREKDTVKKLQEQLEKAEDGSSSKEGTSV
UniProt Q9P1F3: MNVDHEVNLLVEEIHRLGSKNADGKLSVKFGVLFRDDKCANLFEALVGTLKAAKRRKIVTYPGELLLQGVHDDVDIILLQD
UniProt Q9P2B4: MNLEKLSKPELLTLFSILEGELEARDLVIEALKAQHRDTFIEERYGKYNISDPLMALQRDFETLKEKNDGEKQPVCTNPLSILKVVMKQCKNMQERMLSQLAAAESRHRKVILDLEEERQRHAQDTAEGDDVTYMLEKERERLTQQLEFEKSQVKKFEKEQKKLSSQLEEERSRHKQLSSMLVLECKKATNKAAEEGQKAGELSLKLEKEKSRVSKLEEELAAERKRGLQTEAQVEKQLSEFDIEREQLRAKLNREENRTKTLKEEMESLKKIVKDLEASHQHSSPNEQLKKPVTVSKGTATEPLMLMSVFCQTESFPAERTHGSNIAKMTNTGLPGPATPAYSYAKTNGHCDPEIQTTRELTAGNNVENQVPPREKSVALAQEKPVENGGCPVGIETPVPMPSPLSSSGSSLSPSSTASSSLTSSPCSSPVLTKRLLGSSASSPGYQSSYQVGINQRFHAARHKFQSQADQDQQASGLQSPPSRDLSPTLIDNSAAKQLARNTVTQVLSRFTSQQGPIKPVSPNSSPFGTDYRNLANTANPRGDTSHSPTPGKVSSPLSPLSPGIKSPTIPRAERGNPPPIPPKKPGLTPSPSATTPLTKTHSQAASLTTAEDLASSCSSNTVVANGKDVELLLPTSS
UniProt Q9UBF2: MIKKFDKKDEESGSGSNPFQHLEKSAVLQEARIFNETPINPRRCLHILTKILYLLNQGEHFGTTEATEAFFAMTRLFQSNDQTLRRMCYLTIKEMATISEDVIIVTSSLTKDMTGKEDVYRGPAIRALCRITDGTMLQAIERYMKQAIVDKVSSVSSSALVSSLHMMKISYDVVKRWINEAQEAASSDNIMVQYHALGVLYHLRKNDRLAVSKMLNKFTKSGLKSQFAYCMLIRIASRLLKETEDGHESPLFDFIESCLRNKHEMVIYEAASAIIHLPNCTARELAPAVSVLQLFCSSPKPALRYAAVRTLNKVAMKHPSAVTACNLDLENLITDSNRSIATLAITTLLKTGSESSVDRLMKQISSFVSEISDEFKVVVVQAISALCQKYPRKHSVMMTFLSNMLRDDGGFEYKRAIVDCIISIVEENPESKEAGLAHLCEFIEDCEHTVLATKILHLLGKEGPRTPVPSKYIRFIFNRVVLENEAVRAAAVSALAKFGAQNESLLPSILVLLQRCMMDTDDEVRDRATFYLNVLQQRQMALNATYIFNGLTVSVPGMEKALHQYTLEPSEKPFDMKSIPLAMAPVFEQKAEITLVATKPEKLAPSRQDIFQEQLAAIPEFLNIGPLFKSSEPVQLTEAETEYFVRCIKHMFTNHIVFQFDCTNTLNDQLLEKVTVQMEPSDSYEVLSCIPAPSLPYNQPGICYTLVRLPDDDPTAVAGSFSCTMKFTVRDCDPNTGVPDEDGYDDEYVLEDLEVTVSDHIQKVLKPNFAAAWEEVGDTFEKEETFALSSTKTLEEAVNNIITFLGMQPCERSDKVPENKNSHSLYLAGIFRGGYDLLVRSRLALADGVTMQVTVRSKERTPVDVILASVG
UniProt Q9NX61: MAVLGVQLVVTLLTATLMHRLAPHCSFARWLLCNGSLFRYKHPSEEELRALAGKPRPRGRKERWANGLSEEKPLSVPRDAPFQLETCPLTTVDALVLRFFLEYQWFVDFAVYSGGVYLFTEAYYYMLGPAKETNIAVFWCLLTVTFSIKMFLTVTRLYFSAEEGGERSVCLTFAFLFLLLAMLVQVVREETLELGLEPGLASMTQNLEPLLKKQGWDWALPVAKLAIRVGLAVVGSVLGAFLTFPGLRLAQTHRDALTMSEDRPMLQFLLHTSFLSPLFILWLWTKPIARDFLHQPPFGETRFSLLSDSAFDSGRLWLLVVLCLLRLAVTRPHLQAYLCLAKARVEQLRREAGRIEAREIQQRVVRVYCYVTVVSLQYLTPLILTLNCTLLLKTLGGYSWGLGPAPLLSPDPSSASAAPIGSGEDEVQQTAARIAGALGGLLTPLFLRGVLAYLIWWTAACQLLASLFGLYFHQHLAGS
UniProt Q9NVG8: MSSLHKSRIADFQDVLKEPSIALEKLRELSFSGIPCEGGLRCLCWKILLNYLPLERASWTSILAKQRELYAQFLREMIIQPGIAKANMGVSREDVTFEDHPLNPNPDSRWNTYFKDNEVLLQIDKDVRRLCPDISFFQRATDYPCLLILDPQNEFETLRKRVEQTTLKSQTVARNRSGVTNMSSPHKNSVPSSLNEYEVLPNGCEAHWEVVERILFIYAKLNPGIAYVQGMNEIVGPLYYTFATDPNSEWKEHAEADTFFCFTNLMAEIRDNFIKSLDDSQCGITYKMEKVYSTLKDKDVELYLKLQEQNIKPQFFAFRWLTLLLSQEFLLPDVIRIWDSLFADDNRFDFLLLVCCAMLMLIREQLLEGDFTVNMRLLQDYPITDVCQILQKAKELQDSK
UniProt Q9NYL9: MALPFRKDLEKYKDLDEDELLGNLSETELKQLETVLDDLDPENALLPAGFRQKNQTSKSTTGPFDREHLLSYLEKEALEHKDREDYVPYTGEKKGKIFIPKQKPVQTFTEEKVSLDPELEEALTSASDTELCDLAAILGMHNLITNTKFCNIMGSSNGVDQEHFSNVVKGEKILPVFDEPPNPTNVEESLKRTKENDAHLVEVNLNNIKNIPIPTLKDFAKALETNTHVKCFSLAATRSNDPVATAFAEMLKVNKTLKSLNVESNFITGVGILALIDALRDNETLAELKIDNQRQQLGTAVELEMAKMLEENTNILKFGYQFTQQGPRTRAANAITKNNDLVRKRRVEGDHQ
UniProt Q9NVZ3: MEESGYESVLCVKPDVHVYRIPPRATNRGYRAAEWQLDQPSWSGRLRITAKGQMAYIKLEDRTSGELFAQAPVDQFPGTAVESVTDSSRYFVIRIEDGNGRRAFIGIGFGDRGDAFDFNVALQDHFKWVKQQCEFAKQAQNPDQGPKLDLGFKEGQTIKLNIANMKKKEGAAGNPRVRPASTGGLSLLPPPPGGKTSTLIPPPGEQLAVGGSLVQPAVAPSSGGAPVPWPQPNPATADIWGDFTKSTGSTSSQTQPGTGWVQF
UniProt Q9P2R3: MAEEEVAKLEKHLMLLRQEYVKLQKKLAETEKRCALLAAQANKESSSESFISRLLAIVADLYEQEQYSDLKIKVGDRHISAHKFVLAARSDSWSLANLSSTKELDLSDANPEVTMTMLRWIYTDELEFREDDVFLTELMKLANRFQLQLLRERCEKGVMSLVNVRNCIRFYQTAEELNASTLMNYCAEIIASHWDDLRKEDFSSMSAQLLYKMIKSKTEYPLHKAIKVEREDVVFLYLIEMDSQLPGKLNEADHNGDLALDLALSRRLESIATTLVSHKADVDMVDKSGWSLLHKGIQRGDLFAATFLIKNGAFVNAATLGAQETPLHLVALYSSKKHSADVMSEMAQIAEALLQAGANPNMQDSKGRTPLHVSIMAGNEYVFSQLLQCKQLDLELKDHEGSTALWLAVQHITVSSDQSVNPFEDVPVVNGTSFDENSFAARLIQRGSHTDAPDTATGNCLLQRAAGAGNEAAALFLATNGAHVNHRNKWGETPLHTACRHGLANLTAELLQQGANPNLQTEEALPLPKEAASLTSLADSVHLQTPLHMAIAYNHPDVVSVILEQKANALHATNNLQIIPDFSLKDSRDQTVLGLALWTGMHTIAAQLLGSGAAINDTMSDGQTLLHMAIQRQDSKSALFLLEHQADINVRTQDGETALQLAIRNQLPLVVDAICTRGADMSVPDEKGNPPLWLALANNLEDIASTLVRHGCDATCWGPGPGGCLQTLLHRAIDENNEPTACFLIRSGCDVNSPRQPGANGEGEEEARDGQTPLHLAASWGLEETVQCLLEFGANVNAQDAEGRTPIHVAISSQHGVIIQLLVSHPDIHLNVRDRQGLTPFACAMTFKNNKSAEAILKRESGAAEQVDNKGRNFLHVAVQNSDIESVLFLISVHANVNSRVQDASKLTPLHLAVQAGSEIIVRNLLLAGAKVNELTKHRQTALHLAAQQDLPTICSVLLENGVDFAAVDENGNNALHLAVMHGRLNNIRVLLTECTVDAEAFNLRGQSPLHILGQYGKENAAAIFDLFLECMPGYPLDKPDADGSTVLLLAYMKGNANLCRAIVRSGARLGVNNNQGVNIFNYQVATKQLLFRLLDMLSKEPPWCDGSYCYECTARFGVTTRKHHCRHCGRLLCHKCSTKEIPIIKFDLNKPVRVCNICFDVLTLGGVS
UniProt Q9NVP1: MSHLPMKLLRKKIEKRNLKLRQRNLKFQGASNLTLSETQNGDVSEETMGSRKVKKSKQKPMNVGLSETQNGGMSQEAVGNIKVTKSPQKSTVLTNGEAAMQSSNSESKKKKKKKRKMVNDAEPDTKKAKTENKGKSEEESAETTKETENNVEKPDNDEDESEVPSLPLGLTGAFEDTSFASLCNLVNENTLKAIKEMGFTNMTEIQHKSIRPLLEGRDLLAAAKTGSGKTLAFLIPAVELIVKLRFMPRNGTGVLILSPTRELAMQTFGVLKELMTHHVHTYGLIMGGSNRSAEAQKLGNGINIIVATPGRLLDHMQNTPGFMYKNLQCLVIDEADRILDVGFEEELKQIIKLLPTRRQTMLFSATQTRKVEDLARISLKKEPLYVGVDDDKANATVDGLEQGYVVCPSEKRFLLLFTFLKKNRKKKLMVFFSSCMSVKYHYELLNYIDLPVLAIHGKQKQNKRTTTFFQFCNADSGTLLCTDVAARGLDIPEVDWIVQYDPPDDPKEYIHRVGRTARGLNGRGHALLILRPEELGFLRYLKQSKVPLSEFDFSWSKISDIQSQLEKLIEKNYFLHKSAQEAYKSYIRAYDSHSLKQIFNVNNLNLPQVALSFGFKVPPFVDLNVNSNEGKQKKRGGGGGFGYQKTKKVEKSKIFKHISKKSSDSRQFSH
UniProt Q9P0L0: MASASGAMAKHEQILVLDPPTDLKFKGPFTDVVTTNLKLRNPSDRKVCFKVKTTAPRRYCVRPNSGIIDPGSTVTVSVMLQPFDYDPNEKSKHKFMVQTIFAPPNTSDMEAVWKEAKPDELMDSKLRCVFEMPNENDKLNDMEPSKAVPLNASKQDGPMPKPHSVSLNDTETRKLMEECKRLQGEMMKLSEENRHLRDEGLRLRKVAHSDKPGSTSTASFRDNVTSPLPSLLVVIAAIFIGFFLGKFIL

compound: COC(=O)/C=C/c1ccccc1 [methyl cinnamate]; assay: log2 ratio of iodoacetamide-alkyne labeling of the cysteine site, DMSO over compound (competition); higher = stronger covalent engagement of the cysteine by the compound, active = 1 or more; conditions: 500 µM; treatment time 1 h; system: HEK293T cell lysate
Method in brief: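 Reporter intensities give each cysteine's log2 competition ratio as the mean of control channels over the mean of compound channels. The samples were HEK293T lysate (2 mg/mL) given vehicle or electrophile (500 µM, 1 h, ambient temperature), then iodoacetamide alkyne (1 h), followed by click coupling to sCIP-TMT reagents, pooling, trypsin digestion overnight at 37 °C, streptavidin enrichment, acid elution, Orbitrap Eclipse LC-MS/MS with FAIMS and FragPipe quantification. Duplicate channels and three replicates were run, and cysteines quantified in only one replicate were discarded.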

log2 ratio of iodoacetamide-alkyne labeling, inactive:
SIRT5 C303 (UniProt Q9NXA8) 0.0796, ATXN10 C354 (UniProt Q9UBB4) 0.437, MRPS18A C73 (UniProt Q9NVS2) 0.213, UniProt Q9NUQ3_C127 0.478, EXOC1 C650 (UniProt Q9NV70) 0.176, RRBP1 C933 (UniProt Q9P2E9) 0.142, SLAIN2 C306 (UniProt Q9P270) 0.269, FTSJ1 C238 (UniProt Q9UET6) 0.0433, UniProt Q9P1F3_C39 0.232, MRPL22 C70 (UniProt Q9NWU5) -0.126, MPP6 C432 (UniProt Q9NZW5) 0.527, MRPL16 C167 (UniProt Q9NX20) -0.219, NCDN C415 (UniProt Q9UBB6) 0.145, PHRF1 C878 (UniProt Q9P1Y6) 0.151, UniProt Q9NVA2_C268 0.0897, CTTNBP2NL C312 (UniProt Q9P2B4) 0.0612, COPG2 C325 (UniProt Q9UBF2) 0.0417, RBM28 C71 (UniProt Q9NW13) 0.0459, COPG2 C296 (UniProt Q9UBF2) -0.204, FANCI C56 (UniProt Q9NVI1) 0.0916, TMEM161A C33 (UniProt Q9NX61) -0.0494, DDX19A C224 (UniProt Q9NUU7) 0.104, TBC1D13 C387 (UniProt Q9NVG8) 0.151, TMOD3 C231 (UniProt Q9NYL9) 0.137, RRBP1 C1216 (UniProt Q9P2E9) 0.279, NECAP2 C133 (UniProt Q9NVZ3) 0.397, UniProt Q9NYV4_C1039 0.00388, ATXN10 C134 (UniProt Q9UBB4) 0.0976, ANKFY1 C675 (UniProt Q9P2R3) 0.054, FAM120A C279 (UniProt Q9NZB2) -0.204, LARS C527 (UniProt Q9P2J5) -0.214, TMOD3 C150 (UniProt Q9NYL9) 0.135, ASH2L C207 (UniProt Q9UBL3) -0.00185, UCKL1 C317 (UniProt Q9NWZ5) -0.156, DAXX C338 (UniProt Q9UER7) 0.154, DDX18 C472 (UniProt Q9NVP1) -0.00927, VAPA C128 (UniProt Q9P0L0) 0.32
